Test [1] concerns the target recombinant Trichinella spiralis paramyosin (Trichinella spiralis) (UniProt A3RLX8). Briefly: far-Western, overlay or dot blot; reciprocal: rTs-Pmy (1 µg) transferred to PVDF, incubated with soluble C9 (0.5 µg/mL) 2 h at 37°C, detected with monoclonal anti-C9 antibody; both purified.
Test [2] concerns the target human complement component C8, alpha chain (human) (UniProt P07357). Briefly: far-Western, overlay or dot blot; human C8 and C9 (1 µg each) run on SDS-PAGE under reducing conditions, transferred to PVDF, incubated with rTs-Pmy (5 µg/mL in TBS-T) 3 h at 37°C, detected with mAb 7E2; both purified.
The target in test [3] is human complement component C8, beta chain (human) (UniProt P07358). Described as above.
Test [4] addresses human complement component C9 (human) (UniProt P02748). The description is as above.
Test [5] shares this target. Briefly: far-Western, overlay or dot blot; competition: rTs-Pmy (5 µg/mL) pre-incubated with soluble C9 (30 µg/mL, 1:6 w/w) 1 h at 37°C before incubation with the membrane holding C9 (1 µg); detected with mAb 7E2 and IRDye-800CW secondary antibody; both purified.

By UniProt entry, the sequences of proteins in these tests, tags left out. Where a name states a change or a piece, a line headed by the entry shows the natural chain unless it says otherwise. Residues count along the entry.
UniProt A3RLX8: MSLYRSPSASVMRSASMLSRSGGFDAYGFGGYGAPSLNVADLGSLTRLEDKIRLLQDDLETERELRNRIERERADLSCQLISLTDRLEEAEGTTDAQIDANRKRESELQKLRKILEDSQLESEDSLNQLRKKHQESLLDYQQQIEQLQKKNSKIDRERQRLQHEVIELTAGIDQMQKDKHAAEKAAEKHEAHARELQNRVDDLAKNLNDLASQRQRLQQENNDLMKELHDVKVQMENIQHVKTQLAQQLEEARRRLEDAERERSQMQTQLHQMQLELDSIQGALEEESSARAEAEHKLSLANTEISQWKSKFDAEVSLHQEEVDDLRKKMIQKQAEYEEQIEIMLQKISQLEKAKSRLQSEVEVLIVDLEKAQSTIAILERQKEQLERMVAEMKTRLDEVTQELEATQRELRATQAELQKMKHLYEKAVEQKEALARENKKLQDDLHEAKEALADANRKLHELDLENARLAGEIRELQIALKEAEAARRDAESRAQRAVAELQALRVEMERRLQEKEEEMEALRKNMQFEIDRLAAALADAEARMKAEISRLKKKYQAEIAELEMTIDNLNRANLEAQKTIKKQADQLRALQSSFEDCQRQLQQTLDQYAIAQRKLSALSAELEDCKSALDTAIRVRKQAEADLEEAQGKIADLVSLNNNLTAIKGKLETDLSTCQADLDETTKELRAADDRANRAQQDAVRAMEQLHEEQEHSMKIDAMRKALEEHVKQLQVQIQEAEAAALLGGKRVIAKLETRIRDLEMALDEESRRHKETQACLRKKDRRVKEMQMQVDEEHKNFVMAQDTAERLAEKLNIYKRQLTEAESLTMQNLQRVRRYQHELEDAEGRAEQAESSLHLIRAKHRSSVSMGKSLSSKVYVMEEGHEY
UniProt P07357, residues 31-584: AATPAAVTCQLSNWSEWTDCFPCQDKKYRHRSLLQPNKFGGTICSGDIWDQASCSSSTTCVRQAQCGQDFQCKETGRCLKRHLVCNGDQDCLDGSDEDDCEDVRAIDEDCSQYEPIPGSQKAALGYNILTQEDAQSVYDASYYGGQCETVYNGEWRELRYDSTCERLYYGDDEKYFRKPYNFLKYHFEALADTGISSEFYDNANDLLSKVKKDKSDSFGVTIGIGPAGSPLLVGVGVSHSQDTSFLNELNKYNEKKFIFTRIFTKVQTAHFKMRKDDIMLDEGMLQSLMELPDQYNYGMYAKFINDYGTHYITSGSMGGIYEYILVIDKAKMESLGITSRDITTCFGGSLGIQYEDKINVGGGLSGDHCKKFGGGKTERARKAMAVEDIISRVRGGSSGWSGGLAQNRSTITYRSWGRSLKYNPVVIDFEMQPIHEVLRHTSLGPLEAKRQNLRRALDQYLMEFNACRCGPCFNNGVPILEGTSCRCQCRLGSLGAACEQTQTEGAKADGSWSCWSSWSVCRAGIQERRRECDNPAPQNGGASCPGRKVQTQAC
UniProt P07358, residues 55-591: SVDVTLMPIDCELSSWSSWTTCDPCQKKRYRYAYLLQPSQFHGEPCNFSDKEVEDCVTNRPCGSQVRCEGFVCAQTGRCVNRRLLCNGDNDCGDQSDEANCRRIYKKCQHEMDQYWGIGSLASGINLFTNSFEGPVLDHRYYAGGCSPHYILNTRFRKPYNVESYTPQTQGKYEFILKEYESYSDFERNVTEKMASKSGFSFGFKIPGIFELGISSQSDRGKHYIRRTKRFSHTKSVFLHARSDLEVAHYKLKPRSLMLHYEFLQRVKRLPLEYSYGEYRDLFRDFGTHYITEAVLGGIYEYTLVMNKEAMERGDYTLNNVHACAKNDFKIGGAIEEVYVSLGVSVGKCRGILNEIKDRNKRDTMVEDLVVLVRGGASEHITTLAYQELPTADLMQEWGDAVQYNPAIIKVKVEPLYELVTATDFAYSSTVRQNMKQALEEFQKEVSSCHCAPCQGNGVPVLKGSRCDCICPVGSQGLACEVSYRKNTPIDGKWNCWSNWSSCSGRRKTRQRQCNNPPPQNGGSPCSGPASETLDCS
UniProt P02748, residues 22-559: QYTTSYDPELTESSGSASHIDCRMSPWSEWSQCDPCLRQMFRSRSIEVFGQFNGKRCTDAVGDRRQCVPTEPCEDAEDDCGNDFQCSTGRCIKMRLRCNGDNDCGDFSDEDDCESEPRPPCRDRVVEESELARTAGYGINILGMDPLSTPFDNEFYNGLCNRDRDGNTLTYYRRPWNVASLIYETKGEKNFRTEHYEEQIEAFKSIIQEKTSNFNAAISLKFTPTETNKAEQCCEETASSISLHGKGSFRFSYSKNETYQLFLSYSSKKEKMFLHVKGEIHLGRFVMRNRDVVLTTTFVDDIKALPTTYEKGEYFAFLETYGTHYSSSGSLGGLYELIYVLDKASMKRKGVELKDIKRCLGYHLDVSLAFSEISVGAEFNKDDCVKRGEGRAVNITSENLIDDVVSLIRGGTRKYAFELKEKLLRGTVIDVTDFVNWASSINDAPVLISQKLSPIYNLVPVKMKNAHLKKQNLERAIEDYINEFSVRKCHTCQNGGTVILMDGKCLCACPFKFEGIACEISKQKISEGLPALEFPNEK

These are yes or no findings as the source states them, for the method shown. Binding calls can cover weak binding; strength is not graded here.

For the substance “human complement component C9 (from UniProt P02748 22-559)”, in test [1], the binding entry is “binds”.
Consider “recombinant Trichinella spiralis paramyosin (from UniProt A3RLX8)”, for which the binding entry in test [2], in test [3], in test [4] and in test [5] was “binds” each time.

(Values after paper PMC3130009, “Trichinella spiralis Paramyosin Binds to C8 and C9 and Protects the Tissue-Dwelling Nematode from Being Attacked by Host Complement” (PLoS Neglected Tropical Diseases, 2011).)
